Earlier results as cited in patent US6773727B1, “Use of gossypol and related terpenes for control of urban and agricultural pests” (The United States of America as represented by the …, priority 2001, dated 2004).
The name of at least one read-out is uncertain.

Test system: fourth instar larvae of the cotton leafworm (S. littoralis)
Conditions: topical gossypol in acetone; four different insecticides; cited from earlier work

Compound: Cc1cc2c(C(C)C)c(O)c(O)c(C=O)c2c(O)c1-c1c(C)cc2c(C(C)C)c(O)c(O)c(C=O)c2c1O [gossypol]
- increase of insecticide LD50 dosage relative to untreated larvae: two to three times
